Reference: patent US20040142821A1, “Pesticide composition comprising malononitrile compounds” (priority 2001, published 2004)
Some results were stated once for a whole list of compounds, not compound by compound. For some assays here: At least one compound was matched to its structure with a doubt left.

Experiments:
[1] = test system: Nilaparvata lugens; test: Pesticidal test against Nilaparvata lugens, rice cotyledons immersed in test liquid (Test Example 3); format: in vivo, Nilaparvata lugens (brown planthoppers); conditions: 500 ppm test liquid (Formulation Example 1), rice cotyledons immersed 1 minute; 30 first-instar larvae released; 25° C.
[2] = test system: German cockroach; test: Pesticidal test against German cockroach, treated filter paper with sucrose bait (Test Example 6); format: in vivo; conditions: 500 ppm test liquid (Formulation Example 5), 0.7 ml on filter paper; two male adults; after 6 days
Source text: Two male adults of German cockroach (Blattalla germanica) were set free in the polyethylene cup, which was then kept covered. After 6 days, their survival was examined to determine the mortality.

[3] = test system: Nilaparvata lugens; test: Pesticidal test against Nilaparvata lugens, test liquid sprayed onto rice plants (Test Example 1); format: in vivo, Nilaparvata lugens (brown planthopper); conditions: 500 ppm test liquid (Formulation Example 5) sprayed 20 ml/cup onto rice plants; 30 first-instar larvae released; 25° C.
[4] = test system: Nilaparvata lugens; test: Pesticidal test against Nilaparvata lugens, rice plants in holed cup placed in test liquid (Test Example 2); format: in vivo, Nilaparvata lugens (brown planthoppers); conditions: 45.5 ppm test liquid (Formulation Example 5), 55 ml under holed cup with rice plants for 6 days; then 30 first-instar larvae released; 25° C.
[5] = test system: Cullex pipiens pallens; conditions: 0.7 ml of 500 ppm test liquid in 100 ml water (active ingredient 3.5 ppm); twenty final-instar larvae; after 1 days
[6] = test system: Musca domestics; test: Pesticidal test against Musca domestics, treated filter paper with sucrose bait (Test Example 5); format: in vivo; conditions: 500 ppm test liquid (Formulation Example 5), 0.7 ml on filter paper; ten female adults; after 24 hours
Method: Ten female adults of Musca domestics (house fly) were set free in the polyethylene cup, which was then kept covered. After 24 hours, their survival was examined to determine the mortality.

Compound | number of parasitic pests on the 6th day after the treatment [1] | mortality [2] [%] | number of parasitic pests on the 6th day after the treatment [3] | number of parasitic pests on the 6th day after the treatment [4] | mortality [5] [%] | mortality [6] [%]
C=CCCC(C#N)(C#N)C(c1ccc(OC(F)(F)F)cc1)C(C)C (centres unmarked) [Compound 12] | ≤ 3 | 100 | ≤ 3 | ≤ 3 | 100 | 
C=CCCC(C#N)(C#N)Cc1ccc2c(c1)OCO2 [Compound 37, 2-(3-butenyl)-2-(3,4-(methylenedioxy)benzyl)malononitrile] |  |  | ≤ 3 |  | 100 | 100
